MtTrpRS: 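Tryptophan-tRNA ligase, Mycobacterium tuberculosis (UniProt P9WFT3). Enzyme assay of tryptophanyl-tRNA synthetase; the read-out is not stated. Concentration: 10 µM. Higher most likely means stronger inhibition; the record gives no direction and few retests gave an IC50. Size under these conditions: about 65,000 compounds, about 64 of them at 50% or above in at least one test.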
Leishmania in macrophages: 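Cell assay of Leishmania donovani living inside macrophages; the read-out is not stated. Concentration: 30 µM. Higher reads as stronger inhibition (inferred: compounds with an IC50 in retests scored well above the rest). About 69,000 compounds were tested under these conditions; 1.5% (about 1,000) showed 50% or more at least once.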
TcHisRS: 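Enzyme assay of histidyl-tRNA synthetase; the read-out is not stated. Target: Histidine-tRNA ligase, Trypanosoma cruzi CL Brener (UniProt Q4DA54). Tested at 30 µM. The record gives no direction; compounds that gave an IC50 in retests scored well above the rest, so higher reads as stronger inhibition. Of about 69,000 compounds tested this way, about 31 (0.045%) reached 50% or more in at least one test.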

Protein sequences, listed by entry. Tags and fused reporters are not part of them. Residues count along the entry.
UniProt P9WFT3, whole entry: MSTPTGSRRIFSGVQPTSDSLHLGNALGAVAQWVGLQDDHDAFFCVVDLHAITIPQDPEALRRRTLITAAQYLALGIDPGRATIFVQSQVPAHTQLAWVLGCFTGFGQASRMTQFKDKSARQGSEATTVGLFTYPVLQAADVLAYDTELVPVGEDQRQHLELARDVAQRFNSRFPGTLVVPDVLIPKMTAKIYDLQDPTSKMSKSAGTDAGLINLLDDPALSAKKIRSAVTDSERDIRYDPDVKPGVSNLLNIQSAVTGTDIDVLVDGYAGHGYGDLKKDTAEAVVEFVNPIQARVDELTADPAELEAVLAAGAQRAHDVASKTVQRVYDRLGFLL
UniProt Q4DA54, 1-478: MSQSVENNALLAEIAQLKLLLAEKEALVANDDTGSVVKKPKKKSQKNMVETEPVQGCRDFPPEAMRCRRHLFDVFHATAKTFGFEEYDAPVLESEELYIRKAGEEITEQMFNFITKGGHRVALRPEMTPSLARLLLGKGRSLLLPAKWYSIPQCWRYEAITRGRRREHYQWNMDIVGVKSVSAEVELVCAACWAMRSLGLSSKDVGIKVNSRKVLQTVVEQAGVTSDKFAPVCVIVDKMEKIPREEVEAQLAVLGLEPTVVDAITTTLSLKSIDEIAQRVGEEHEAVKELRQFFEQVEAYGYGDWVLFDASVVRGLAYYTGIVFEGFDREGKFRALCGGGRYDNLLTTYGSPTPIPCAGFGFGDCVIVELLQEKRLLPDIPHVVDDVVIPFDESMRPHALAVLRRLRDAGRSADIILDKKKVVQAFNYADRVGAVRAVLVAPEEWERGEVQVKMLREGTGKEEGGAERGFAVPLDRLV

Each number is a percent effect as filed. The controls that fix the scale are not given in the record; negative values are as filed. The compounds are a random part of those screened. Two or more numbers in one place are separate tests of the same structure; such repeats can differ widely. A dash means the value is not listed here; it may have been measured.

structure	MtTrpRS	Leishmania in macrophages	TcHisRS
O=C(c1ccco1)N1CCCC2(C1)CN(c1nncs1)CCO2 (stereo not shown)	-	54.73%	3.315%
CCN(C)S(=O)(=O)N(CC)Cc1ccc2c(c1)OCO2	-1.998%	14.65%	0.7634%
NC(=O)C(CNC(=O)COCC(F)(F)F)Cc1ccc(F)cc1 (stereo not shown)	1.801%	31.52%	2.174%
COc1nccnc1N1C[C@@H]2CC[C@H](C1)N(CC=C(C)C)C2=O	1.373%	-	2.41%
COCCN(CCOC)c1ncccc1Cl	-10.98%	10.08%	-3.333%
Cc1ccc(CN(Cc2ccccn2)C(=O)CCC2CCCN(C)C2)s1 (stereo not shown)	-3.16%	-28.95%	2.941%
COc1ccc(F)cc1C(C(=O)O)N1CCSCC1 (stereo not shown)	0.5029%	19.24%	1.695%
COc1cc(CCC(=O)NC(C)C(=O)O)ccc1OCC(F)(F)F (stereo not shown)	-4.184%	5.265%	1.734%
CCSc1cccc(NCc2cccnc2)c1	-0.6415%	-3.302%	4.348%
CCOC(=O)c1sc(NC(=O)CCCC(=O)O)c(C#N)c1C	2.581%	-51.57%	1.754%
CN(Cc1nnc2n1CCC2)C(=O)Cc1ccc2c(c1)CCC2	-2.684%	1.717%	3.779%
Cc1cnc(N2CCC3(CC2)CC(NC(=O)N(C)C)CO3)nc1 (stereo not shown)	-0.7214%	5.267%	8.046%
CCc1cnc2c(c1Nc1ccccc1OC)c(=O)n(C)c(=O)n2C	4.255%	29.71%	10.55%
CCc1ccc(C(=O)NCc2ccnc(N3CCN(C)CC3)c2)o1	-4.888%	25.65%	5.294%
COc1cc(CNCCc2cnn(C)c2)cc(OC)c1OC	8.944%	8.869%	5.294%
NC(=O)CN1CCCN(C(=O)c2ccn(-c3ccccc3)n2)CC1	-0.9479%	16.73%	-3.252%
NCC1Cc2cccc(-c3nccc(N4CCC(O)CC4)n3)c2O1 (stereo not shown)	0.3358%	19.12%	20.41%
Cc1cccc(OCc2nnc(SCC3CCCN(C)C3)o2)c1 (stereo not shown)	-2.386%	9.655%	1.724%
[H][C@]12CN(CC3CC3)C(=O)[C@@]1([H])CN(S(=O)(=O)CC)C2	-	19.74%	-
CCCNC(=O)Nc1cc2c(cc1SC)OCCO2	2.439%	-0.09016%	-3.743%
CCn1c(CN2CCC(O)(c3ccc4c(c3)OCO4)CC2)cnc1SC	-0.5208%	-	1.149%
Cc1cc(C(F)(F)F)nn1CC(C)C(=O)Nc1ccccn1 (stereo not shown)	-8.549%	10.85%	4.348%
O=C(Cc1cccc(O)c1)NC1CCN(c2cccc(Cl)c2)C1 (stereo not shown)	0.3425%	5.178%	2.532%
Cc1csc(Nc2nccnc2C2CCCN2CC(N)=O)n1 (stereo not shown)	-	-10.57% & 5.445%	-10.99%
Cc1ccccc1[C@@H]1CN(CCCS(=O)(=O)N(C)C)C[C@H]1C(=O)O	-0.7401%	-5.268%	1.235%
Cc1ccccc1C(=O)N1CCOC2(CNCCOC2)C1 (stereo not shown)	-10.6%	12.06%	5%
O=C(O)C(F)(F)F.[H][C@@]12CN(c3cc(OC)ncn3)C[C@H](C(=O)NCC3CC3)[C@]1([H])CCO2	-	-0.6398%	-
O=C(O)C(F)(F)F.O=C(O)C(F)(F)F.[H][C@@]12CCN(Cc3cccnc3)C[C@]1(C(=O)N1CCCO1)CCO2	-	13.9%	-
Cn1nnnc1SC1CCCN(c2cccc(F)c2)C1=O (stereo not shown)	-1.242%	-14.02% & 22.35%	6.024%
CNC(=O)c1ccc(S(=O)(=O)NCc2cccnc2N(C)C)cc1	-0.8023%	14.97%	5.714%
CN(C)Cc1nnc(C2CCN(C(=O)CCc3cccs3)CC2)n1C	-2.864%	-2.607%	-0.8333%
Cc1cccc(N2CCN(c3ccn4c(=O)[nH]nc4n3)CC2)c1C	-3.233%	23.28%	8.293%
CCCc1noc(CCC(=O)N2CCCC2Cn2cc(C)cn2)n1 (stereo not shown)	-2.714%	7.619%	-3%
Cc1cc(C(=O)N2CC[C@]3(C[C@@H](OCc4ccccn4)CO3)C2)c(C)o1.O=C(O)C(F)(F)F	-	7.951%	-
Cc1cc(Cl)ccc1NCc1ccc(C(=O)N(C)C)[nH]1	-2.279%	12.49%	8.333%
O=C(CCc1ncc(-c2ccc(F)cc2)o1)NCCN1CCOCC1	-2.815%	-1.306%	6.122%
CN(C1CCN(c2ccccn2)CC1)S(=O)(=O)c1cccc(F)c1	2.801%	-0.02971%	15.52%
COc1ccc2[nH]cc(CCNC(=O)C3CCCN(C(C)=O)C3)c2c1 (stereo not shown)	7.395%	13.01%	10.89%
CCOC(=O)C(C)NC(=O)N1CCN(c2nc3ccccc3n2C)CC1 (stereo not shown)	-0.4402%	27.16%	4.523%
CC(C)[C@]1(O)CN(C(=O)CNC(N)=O)C[C@H]1C	1.935%	32.85%	5.051%
N#Cc1c(Cl)nsc1NCc1cccnc1OCC(F)(F)F	0.6427%	71.75%	-1.84%
COCC1CN(C(=O)Cc2ccccn2)Cc2c1cnn2CC1CC1 (stereo not shown)	1.592%	-	11.22%
COC(=O)CNC(=O)Cn1ccc2cccc(OC)c21	-3.431%	20.3%	-1.754%
CCCC(=O)N1CCC(O)(Cn2c(CC)nc3ccccc3c2=O)CC1.Cl	-	12.67%	-
CN1CCN(C(=O)CCn2c(C(F)(F)F)cc3cccnc32)CC1	5.159%	-3.408% & 9.108%	5.224%
CC(=O)Nc1ccc2nc(CN(C)Cc3noc(C)n3)ccc2c1	2.203%	-23.84%	12%
CNC(=O)C1(c2cnccn2)CCCN1C(=O)c1ccccc1OC (stereo not shown)	-0.5833%	20.74%	0%
CC(C)(CNC(=O)NCCOc1cccc(F)c1)C(N)=O	-4.717%	8.354%	4.183%
Nc1no[n+]([O-])c1C(=O)NCc1ccccn1	2.654%	18.13%	4.95%
CCOc1ncnc2c1CCN(S(=O)(=O)C1CC1)CC2	16.42%	0.9022% & -11.14%	3.226%
Cc1cccc(N(C)S(=O)(=O)c2cc(C(=O)O)cs2)c1C	-3.185%	2.283%	2.128%
CS(=O)(=O)N1CCCCCC1C1CCN(Cc2nc(C3CC3)no2)CC1 (stereo not shown)	32.79%	24.05%	3.804%
CC(C)(C)c1n[nH]c(C2CN(C(=O)c3cc(C4CC4)[nH]n3)CCO2)n1 (stereo not shown)	0.3393%	10.3%	2%
COCCN1CCC2(CC1)CN(C(=O)c1ccco1)CCO2	3.052%	-	1.942%

Once more, the final 4:

With Cc1cccc(N(C)S(=O)(=O)c2cc(C(=O)O)cs2)c1C the screen gave MtTrpRS: -3.185%; Leishmania in macrophages: 2.283%; TcHisRS: 2.128%.
With CS(=O)(=O)N1CCCCCC1C1CCN(Cc2nc(C3CC3)no2)CC1 (stereo not shown) the screen gave MtTrpRS: 32.79%; Leishmania in macrophages: 24.05%; TcHisRS: 3.804%.
With CC(C)(C)c1n[nH]c(C2CN(C(=O)c3cc(C4CC4)[nH]n3)CCO2)n1 (stereo not shown) the screen gave MtTrpRS: 0.3393%; Leishmania in macrophages: 10.3%; TcHisRS: 2%.
With COCCN1CCC2(CC1)CN(C(=O)c1ccco1)CCO2 the screen gave MtTrpRS: 3.052%; TcHisRS: 1.942%.

Data taken from ChEMBL document CHEMBL3988442, “University of Dundee, Small-Polar-MMV Screening Library” (2021).